The other results are listed elsewhere or left out. The data scatter; read single values as rough.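 Many melting curves are irregular; where none melted, Tm was taken as 64 °C.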
Compound: CCc1cnccc1C(=O)Nc1cc2c(cc1F)NC(=O)CC2
Test: melting temperature shift (DMSO Tm minus MBE1-treated Tm) in cellular thermal proteome profiling; higher = less thermal stabilization by MBE1 (negative = stabilized by MBE1)
Settings: A375

Protein sequences, listed by entry. Tags and fused reporters are not part of them. Lines headed by an entry give the natural chain unless they say otherwise; changes in a name come on top.
UniProt Q5T447: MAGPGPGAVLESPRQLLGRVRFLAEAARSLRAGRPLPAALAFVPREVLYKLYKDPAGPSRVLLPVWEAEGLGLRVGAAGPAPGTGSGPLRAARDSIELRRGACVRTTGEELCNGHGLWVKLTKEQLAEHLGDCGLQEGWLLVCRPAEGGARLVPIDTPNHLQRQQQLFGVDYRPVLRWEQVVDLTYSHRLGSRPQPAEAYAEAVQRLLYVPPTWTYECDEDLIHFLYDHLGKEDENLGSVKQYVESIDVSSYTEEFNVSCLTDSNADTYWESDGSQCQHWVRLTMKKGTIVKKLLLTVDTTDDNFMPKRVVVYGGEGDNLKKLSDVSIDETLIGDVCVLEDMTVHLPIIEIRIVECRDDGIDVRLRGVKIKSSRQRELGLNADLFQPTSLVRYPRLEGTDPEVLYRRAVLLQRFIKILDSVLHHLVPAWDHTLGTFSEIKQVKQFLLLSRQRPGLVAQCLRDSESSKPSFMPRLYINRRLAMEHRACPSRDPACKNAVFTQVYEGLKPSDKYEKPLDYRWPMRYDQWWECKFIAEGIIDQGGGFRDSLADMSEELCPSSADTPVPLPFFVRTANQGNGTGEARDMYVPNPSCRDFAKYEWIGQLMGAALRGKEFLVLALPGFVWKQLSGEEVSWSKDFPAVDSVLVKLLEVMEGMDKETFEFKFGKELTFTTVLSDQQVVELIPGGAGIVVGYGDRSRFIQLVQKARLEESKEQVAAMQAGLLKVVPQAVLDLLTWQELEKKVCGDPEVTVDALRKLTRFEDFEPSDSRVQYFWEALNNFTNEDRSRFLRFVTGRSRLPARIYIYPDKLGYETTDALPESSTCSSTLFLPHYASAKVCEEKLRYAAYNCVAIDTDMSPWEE
UniProt Q5W0V3: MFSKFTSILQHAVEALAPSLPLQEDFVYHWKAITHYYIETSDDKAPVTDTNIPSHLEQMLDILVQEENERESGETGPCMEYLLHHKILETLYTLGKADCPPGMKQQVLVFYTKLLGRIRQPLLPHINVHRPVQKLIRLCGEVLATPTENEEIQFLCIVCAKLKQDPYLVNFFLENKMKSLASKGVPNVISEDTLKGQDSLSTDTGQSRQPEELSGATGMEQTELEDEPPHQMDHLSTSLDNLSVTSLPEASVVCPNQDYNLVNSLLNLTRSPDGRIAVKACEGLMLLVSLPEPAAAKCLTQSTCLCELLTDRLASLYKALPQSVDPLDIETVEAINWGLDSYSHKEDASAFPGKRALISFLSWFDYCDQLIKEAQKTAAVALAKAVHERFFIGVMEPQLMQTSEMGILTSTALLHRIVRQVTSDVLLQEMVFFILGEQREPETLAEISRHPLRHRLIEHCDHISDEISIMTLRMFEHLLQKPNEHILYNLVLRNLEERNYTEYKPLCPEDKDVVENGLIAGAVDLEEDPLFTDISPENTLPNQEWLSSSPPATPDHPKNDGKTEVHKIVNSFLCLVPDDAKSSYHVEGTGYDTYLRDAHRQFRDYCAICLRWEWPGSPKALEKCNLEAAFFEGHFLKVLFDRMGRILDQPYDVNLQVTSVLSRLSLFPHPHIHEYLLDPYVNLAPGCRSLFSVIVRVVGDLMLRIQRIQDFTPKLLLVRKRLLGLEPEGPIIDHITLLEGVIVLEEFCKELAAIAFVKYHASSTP
UniProt Q5BJH2: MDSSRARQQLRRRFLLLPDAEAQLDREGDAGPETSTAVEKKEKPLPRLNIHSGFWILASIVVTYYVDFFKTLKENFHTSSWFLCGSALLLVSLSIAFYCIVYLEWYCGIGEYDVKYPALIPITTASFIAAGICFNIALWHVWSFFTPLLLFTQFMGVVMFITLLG
UniProt Q5TEU4: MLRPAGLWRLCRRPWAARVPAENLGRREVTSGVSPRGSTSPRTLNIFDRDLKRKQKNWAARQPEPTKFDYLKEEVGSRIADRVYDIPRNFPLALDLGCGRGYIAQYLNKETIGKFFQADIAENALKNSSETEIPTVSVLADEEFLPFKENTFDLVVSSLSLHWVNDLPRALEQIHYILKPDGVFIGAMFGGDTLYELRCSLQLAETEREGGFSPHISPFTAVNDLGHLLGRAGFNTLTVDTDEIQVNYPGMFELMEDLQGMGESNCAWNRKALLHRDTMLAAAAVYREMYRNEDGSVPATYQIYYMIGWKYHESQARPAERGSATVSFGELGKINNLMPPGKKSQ
UniProt Q6NUQ4: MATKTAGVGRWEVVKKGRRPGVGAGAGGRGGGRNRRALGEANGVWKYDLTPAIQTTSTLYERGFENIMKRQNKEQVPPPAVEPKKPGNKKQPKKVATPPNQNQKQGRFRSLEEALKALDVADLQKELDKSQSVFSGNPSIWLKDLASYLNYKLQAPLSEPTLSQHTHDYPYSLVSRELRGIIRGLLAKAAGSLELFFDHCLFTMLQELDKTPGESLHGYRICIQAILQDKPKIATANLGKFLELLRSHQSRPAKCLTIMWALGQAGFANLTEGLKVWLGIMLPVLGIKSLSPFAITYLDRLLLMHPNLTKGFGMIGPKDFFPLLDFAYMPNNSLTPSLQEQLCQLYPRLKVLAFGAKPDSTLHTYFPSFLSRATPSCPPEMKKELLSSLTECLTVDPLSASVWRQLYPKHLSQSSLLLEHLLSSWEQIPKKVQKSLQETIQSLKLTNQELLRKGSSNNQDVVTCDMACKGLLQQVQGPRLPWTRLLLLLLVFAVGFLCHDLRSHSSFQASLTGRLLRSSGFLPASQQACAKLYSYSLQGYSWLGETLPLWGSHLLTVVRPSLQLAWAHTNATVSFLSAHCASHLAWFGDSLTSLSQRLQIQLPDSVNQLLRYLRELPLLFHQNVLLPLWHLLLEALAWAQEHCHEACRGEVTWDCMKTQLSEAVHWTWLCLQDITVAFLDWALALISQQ
UniProt Q641Q2, whole entry: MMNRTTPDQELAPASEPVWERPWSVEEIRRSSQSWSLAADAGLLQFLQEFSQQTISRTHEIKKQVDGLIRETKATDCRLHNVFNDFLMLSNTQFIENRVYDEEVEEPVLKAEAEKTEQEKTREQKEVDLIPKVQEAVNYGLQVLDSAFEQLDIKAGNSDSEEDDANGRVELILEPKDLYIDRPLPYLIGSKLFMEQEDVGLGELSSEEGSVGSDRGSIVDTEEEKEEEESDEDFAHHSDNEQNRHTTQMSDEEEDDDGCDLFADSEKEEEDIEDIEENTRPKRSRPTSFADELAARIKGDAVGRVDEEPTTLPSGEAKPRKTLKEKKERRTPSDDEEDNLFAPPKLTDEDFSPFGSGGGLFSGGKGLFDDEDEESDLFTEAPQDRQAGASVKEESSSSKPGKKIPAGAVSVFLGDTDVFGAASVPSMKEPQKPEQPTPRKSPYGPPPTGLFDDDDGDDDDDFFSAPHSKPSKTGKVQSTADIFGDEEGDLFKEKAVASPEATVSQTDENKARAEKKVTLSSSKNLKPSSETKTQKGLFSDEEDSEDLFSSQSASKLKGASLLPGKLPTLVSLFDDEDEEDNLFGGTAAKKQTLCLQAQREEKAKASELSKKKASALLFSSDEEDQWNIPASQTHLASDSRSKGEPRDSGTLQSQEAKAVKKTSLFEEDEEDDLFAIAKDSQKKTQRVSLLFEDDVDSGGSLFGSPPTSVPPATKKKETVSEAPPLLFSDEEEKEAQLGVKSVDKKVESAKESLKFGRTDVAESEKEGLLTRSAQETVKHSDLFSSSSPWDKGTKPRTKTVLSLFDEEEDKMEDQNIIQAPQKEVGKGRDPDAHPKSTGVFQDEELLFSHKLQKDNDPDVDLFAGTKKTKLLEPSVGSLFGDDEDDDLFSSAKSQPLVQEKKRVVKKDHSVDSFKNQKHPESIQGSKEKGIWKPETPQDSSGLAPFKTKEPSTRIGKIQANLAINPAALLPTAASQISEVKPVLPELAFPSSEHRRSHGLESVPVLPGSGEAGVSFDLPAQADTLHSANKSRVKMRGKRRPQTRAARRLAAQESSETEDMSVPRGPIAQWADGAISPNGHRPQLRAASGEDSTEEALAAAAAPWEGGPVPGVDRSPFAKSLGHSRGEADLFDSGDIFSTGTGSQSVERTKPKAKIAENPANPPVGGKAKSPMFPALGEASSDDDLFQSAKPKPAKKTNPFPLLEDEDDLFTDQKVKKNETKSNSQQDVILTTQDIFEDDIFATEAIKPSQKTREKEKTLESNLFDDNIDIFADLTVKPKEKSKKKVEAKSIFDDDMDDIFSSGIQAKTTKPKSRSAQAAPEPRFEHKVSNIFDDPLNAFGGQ
UniProt Q5W111: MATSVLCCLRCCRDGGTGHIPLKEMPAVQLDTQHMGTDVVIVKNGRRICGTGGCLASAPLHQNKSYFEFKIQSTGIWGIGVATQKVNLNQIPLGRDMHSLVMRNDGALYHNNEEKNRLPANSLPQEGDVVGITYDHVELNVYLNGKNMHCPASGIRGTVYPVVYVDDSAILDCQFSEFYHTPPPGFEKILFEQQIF
UniProt Q6KCM7: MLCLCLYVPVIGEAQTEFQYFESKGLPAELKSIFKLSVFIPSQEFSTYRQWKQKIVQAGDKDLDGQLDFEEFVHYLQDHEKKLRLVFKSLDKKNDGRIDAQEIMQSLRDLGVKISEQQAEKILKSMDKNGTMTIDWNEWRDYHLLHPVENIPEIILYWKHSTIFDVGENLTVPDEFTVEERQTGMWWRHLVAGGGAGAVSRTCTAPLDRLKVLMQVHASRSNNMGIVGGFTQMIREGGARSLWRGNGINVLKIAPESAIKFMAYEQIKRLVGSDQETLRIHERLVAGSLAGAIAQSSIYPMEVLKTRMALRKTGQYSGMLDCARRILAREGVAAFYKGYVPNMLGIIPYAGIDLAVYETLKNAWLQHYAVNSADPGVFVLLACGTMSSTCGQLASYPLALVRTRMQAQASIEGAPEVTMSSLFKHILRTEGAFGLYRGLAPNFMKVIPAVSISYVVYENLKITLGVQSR
UniProt Q5VWZ2: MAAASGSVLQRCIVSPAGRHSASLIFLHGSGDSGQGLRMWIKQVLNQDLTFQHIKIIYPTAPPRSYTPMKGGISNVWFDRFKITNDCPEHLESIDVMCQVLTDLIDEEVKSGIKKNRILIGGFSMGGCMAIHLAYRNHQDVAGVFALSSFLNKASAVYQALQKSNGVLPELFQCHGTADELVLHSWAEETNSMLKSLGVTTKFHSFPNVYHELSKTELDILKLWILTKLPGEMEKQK
UniProt Q5NDL2: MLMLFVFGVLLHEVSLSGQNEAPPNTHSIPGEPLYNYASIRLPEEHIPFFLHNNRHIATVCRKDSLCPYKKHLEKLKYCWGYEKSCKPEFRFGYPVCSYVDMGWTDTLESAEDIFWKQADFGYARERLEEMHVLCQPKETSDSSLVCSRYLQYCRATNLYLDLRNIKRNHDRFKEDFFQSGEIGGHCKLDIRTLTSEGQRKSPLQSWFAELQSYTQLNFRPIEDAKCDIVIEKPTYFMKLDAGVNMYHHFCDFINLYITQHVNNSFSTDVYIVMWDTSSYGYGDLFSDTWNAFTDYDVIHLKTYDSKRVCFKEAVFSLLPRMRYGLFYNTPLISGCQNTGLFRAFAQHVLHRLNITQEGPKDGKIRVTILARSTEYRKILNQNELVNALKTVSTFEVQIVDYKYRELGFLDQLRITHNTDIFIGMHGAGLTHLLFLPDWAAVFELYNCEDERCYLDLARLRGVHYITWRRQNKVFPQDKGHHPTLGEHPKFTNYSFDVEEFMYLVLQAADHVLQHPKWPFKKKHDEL
UniProt Q6GMV3: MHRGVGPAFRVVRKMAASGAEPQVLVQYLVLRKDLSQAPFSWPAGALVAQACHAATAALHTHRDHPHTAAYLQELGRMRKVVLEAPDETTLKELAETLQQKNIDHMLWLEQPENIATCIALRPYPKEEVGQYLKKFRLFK
UniProt Q5W0B1: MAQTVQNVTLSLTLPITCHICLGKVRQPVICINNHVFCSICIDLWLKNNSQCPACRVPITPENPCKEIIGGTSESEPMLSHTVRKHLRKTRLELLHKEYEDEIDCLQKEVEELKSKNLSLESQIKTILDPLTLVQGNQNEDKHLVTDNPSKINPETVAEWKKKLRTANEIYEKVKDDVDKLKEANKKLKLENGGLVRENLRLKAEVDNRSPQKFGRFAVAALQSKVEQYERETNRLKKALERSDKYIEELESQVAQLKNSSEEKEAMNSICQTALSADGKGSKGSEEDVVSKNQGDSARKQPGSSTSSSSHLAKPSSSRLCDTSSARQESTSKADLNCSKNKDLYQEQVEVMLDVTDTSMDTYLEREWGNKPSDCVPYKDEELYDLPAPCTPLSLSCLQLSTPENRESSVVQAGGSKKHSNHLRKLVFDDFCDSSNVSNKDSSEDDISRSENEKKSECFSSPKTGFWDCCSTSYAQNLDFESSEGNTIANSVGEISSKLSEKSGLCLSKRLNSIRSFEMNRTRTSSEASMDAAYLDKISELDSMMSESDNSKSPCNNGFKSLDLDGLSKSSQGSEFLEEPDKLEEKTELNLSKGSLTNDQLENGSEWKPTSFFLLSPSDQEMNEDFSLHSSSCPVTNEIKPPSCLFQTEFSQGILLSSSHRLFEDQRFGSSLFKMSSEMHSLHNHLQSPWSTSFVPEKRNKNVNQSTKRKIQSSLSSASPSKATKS
UniProt Q5JS54: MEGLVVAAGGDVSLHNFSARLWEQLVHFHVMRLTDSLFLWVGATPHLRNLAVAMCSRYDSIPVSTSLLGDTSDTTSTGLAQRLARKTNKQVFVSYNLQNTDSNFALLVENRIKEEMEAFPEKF

Target | melting temperature shift (MBE1 concentration: 100 nM) | melting temperature shift (MBE1 concentration: 1 uM)
UniProt Q5HYJ3 | -0.0794 °C | -0.116 °C
HECTD3 (UniProt Q5T447) | 1.05 °C | 0.611 °C
CDC73 (UniProt Q6P1J9) | -0.102 °C | -0.192 °C
INTS3 (UniProt Q68E01) | -0.639 °C | -0.615 °C
CEP85 (UniProt Q6P2H3) | -1.84 °C | -1.38 °C
FAM160B1 (UniProt Q5W0V3) | -0.387 °C | -0.00671 °C
FKBP15 (UniProt Q5T1M5) | 0.452 °C | -0.336 °C
SAMD9 (UniProt Q5K651) | -1.03 °C | -0.179 °C
PRPF8 (UniProt Q6P2Q9) | 0.324 °C | 0.134 °C
SDE2 (UniProt Q6IQ49) | -0.868 °C | 0.635 °C
UniProt Q5I7T1 | -0.255 °C | 0.656 °C
UniProt Q6IQ23 | -0.55 °C | 0.322 °C
DHX57 (UniProt Q6P158) | -0.387 °C | 0.385 °C
UniProt Q5FBB7 | -0.51 °C | -0.083 °C
UniProt Q5SNT2 | -0.055 °C | 0.122 °C
VPS53 (UniProt Q5VIR6) | -0.395 °C | -0.824 °C
UniProt Q5R372 | 0.055 °C | 0.122 °C
EMC4 (UniProt Q5J8M3) | 0.0738 °C | 0.476 °C
ANKRD40 (UniProt Q6AI12) | -1.16 °C | 0.113 °C
ATL3 (UniProt Q6DD88) | -0.22 °C | 0.458 °C
NADSYN1 (UniProt Q6IA69) | -0.971 °C | -0.906 °C
UniProt Q5VTQ0 | -0.557 °C | 0.828 °C
UniProt Q5SRI9 | -1.9 °C | 0.733 °C
MTX3 (UniProt Q5HYI7) | -0.601 °C | 0.122 °C
ZDHHC20 (UniProt Q5W0Z9) | -2.77 °C | -2.97 °C
UniProt Q6NSJ2 | -0.231 °C | -0.945 °C

Target | melting temperature shift (MBE1 concentration: 100 nM) | melting temperature shift (MBE1 concentration: 1 uM)
LETMD1 (UniProt Q6P1Q0) | -0.624 °C | 0.215 °C
RPRD2 (UniProt Q5VT52) | -0.256 °C | -0.404 °C
UniProt Q5EBM0 | 0.369 °C | 3.67 °C
UniProt Q5BJH2 | -3.86 °C | 2.34 °C
UniProt Q68DA7 | -1.15 °C | -0.327 °C
SPECC1L (UniProt Q69YQ0) | 0.244 °C | -0.299 °C
PDE4DIP (UniProt Q5VU43) | 0.287 °C | 0.55 °C
RNF20 (UniProt Q5VTR2) | -0.397 °C | -0.455 °C
DNTTIP2 (UniProt Q5QJE6) | 0.0427 °C | 0.275 °C
UniProt Q5SW96 | -0.48 °C | -0.325 °C
PRRC2B (UniProt Q5JSZ5) | -2.83 °C | 0.44 °C
FOCAD (UniProt Q5VW36) | -0.411 °C | 0.421 °C
NDUFAF5 (UniProt Q5TEU4) | -1.07 °C | 1.14 °C
TPRG1L (UniProt Q5T0D9) | -0.362 °C | 0.188 °C
RPL22L1 (UniProt Q6P5R6) | 0.14 °C | 0.36 °C
TMEM214 (UniProt Q6NUQ4) | 0.959 °C | 0.208 °C
FAM21A (UniProt Q641Q2) | 0.452 °C | -0.171 °C
SPRYD7 (UniProt Q5W111) | 0.215 °C | -0.188 °C
UniProt Q6KCM7 | -0.288 °C | 0.525 °C
SAMD4B (UniProt Q5PRF9) | 0.55 °C | 0.565 °C
SFXN4 (UniProt Q6P4A7) | -2.49 °C | 0.208 °C
RILPL1 (UniProt Q5EBL4) | -0.616 °C | -1.3 °C
C8ORF82 (UniProt Q6P1X6) | -0.986 °C | 0.0427 °C
UniProt Q68DY1 | -1.19 °C | 0.11 °C
UniProt Q68DK2 | 1.22 °C | -0.275 °C
NAA35 (UniProt Q5VZE5) | 0.348 °C | 0.305 °C

Quoted at random: four entries already listed, in no set order.
Target | melting temperature shift (MBE1 concentration: 100 nM) | melting temperature shift (MBE1 concentration: 1 uM)
UniProt Q68DK2 | 1.22 °C | -0.275 °C
FAM21A (UniProt Q641Q2) | 0.452 °C | -0.171 °C
UniProt Q6KCM7 | -0.288 °C | 0.525 °C
RILPL1 (UniProt Q5EBL4) | -0.616 °C | -1.3 °C

Next part:

Target | melting temperature shift (MBE1 concentration: 100 nM) | melting temperature shift (MBE1 concentration: 1 uM)
RNF187 (UniProt Q5TA31) | -0.0805 °C | -1.57 °C
LYPLAL1 (UniProt Q5VWZ2) | 0.208 °C | 0.0201 °C
UniProt Q6JQN1 | 0 °C | -0.0174 °C
SH3D19 (UniProt Q5HYK7) | -0.402 °C | -0.791 °C
UniProt Q5SY16 | 0.144 °C | -0.138 °C
ATG16L1 (UniProt Q676U5) | -0.912 °C | -0.00671 °C
FAM91A1 (UniProt Q658Y4) | -0.127 °C | 0.434 °C
RNF213 (UniProt Q63HN8) | -0.518 °C | 0.0941 °C
NT5DC1 (UniProt Q5TFE4) | -0.153 °C | 1.6 °C
CEP170 (UniProt Q5SW79) | 0.311 °C | 0.116 °C
EOGT (UniProt Q5NDL2) | 1.03 °C | -0.805 °C
MIA3 (UniProt Q5JRA6) | 0.153 °C | 0.263 °C
MANEAL (UniProt Q5VSG8) | -1.03 °C | -0.0939 °C
DNAJC21 (UniProt Q5F1R6) | -6.32 °C | -2.64 °C
UBR4 (UniProt Q5T4S7) | 0.861 °C | 0.299 °C
AARS2 (UniProt Q5JTZ9) | -0.878 °C | -0.746 °C
RARS2 (UniProt Q5T160) | 0.513 °C | 0.391 °C
TTC38 (UniProt Q5R3I4) | 0.672 °C | 0.464 °C
KANK2 (UniProt Q63ZY3) | -0.752 °C | 0.0128 °C
GPR107 (UniProt Q5VW38) | -2.55 °C | -3.23 °C
RNASEH2B (UniProt Q5TBB1) | -1.01 °C | -0.00941 °C
MAST2 (UniProt Q6P0Q8) | -1.59 °C | -1.96 °C
UniProt Q6P444 | 0.0855 °C | -1.28 °C
UniProt Q5TF21 | -0.385 °C | -2.53 °C
ODF2 (UniProt Q5BJF6) | 0.302 °C | 0.617 °C
RINT1 (UniProt Q6NUQ1) | -1.04 °C | -0.536 °C

Target | melting temperature shift (MBE1 concentration: 100 nM) | melting temperature shift (MBE1 concentration: 1 uM)
ZCCHC11 (UniProt Q5TAX3) | -0.645 °C | 0.216 °C
UniProt Q5SXM2 | -0.443 °C | -0.742 °C
DIEXF (UniProt Q68CQ4) | -0.16 °C | -0.147 °C
RNF123 (UniProt Q5XPI4) | 0.128 °C | -0.214 °C
UniProt Q6GMV3 | -2.7 °C | 0.0435 °C
UniProt Q6IPU0 | -0.999 °C | -0.0805 °C
UniProt Q5T011 | 1.35 °C | 1.25 °C
UniProt Q58EX7 | -0.939 °C | -1.7 °C
UniProt Q5VUJ6 | 1.27 °C | -1.22 °C
ZMYM1 (UniProt Q5SVZ6) | -0.0944 °C | -2.15 °C
CEP350 (UniProt Q5VT06) | 0.733 °C | 2.53 °C
CPSF3L (UniProt Q5TA45) | -0.208 °C | -0.275 °C
SCYL2 (UniProt Q6P3W7) | -0.363 °C | 0.415 °C
DHRS7B (UniProt Q6IAN0) | 0.965 °C | 0.861 °C
PPP2R2D (UniProt Q66LE6) | -0.317 °C | 0.879 °C
PMF1 (UniProt Q6P1K2) | 0.537 °C | -0.812 °C
IQSEC1 (UniProt Q6DN90) | -1.66 °C | -1.25 °C
SLC27A4 (UniProt Q6P1M0) | 0.164 °C | 0.00891 °C
RPUSD3 (UniProt Q6P087) | 0.177 °C | 0.705 °C
TBC1D9B (UniProt Q66K14) | 0.385 °C | 0.0183 °C
RNF219 (UniProt Q5W0B1) | -2.25 °C | 0.428 °C
NCAPH2 (UniProt Q6IBW4) | -0.659 °C | -0.358 °C
PSMG4 (UniProt Q5JS54) | 0.0118 °C | 1.17 °C
UniProt Q5JPI3 | -1.08 °C | -0.864 °C
SNX30 (UniProt Q5VWJ9) | 0.311 °C | -0.25 °C
ARHGAP21 (UniProt Q5T5U3) | -0.696 °C | -1.44 °C

From the supplement of paper PMC12595434, “Development of retinoid nuclear receptor pathway antagonists through targeting aldehyde dehydrogenase 1A3” (iScience, 2025)
